The other results are listed elsewhere or left out.

Chains of the proteins cited; added tags and fusions are not shown. Lines headed by an entry give the natural chain unless they say otherwise; changes in a name come on top.
UniProt Q15836, whole entry, looked up: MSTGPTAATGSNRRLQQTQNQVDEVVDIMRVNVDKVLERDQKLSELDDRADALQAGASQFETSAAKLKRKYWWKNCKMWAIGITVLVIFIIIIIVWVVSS
UniProt O14957: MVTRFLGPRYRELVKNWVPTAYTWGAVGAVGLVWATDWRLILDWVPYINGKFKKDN
UniProt C9J7I0: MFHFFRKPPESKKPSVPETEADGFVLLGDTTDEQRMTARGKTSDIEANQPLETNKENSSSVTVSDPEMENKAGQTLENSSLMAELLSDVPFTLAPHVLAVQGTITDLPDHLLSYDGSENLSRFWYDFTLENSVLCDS
UniProt Q9H347: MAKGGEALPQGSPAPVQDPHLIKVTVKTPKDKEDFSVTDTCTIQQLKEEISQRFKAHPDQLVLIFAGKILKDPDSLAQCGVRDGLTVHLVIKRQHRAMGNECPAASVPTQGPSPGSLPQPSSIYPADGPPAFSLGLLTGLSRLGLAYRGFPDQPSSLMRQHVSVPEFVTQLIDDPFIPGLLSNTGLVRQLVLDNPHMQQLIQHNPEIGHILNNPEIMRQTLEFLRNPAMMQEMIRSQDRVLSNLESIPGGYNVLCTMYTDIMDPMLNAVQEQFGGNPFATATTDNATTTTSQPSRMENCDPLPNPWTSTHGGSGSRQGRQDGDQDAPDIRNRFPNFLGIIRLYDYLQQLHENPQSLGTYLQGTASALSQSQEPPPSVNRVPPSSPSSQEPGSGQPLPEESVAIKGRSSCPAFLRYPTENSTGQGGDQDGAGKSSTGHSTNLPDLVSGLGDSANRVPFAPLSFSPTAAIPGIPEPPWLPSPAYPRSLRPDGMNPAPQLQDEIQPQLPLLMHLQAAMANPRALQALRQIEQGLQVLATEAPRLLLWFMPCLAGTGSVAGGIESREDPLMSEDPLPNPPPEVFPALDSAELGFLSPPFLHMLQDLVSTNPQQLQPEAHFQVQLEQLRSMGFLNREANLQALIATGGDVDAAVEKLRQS
UniProt Q14146: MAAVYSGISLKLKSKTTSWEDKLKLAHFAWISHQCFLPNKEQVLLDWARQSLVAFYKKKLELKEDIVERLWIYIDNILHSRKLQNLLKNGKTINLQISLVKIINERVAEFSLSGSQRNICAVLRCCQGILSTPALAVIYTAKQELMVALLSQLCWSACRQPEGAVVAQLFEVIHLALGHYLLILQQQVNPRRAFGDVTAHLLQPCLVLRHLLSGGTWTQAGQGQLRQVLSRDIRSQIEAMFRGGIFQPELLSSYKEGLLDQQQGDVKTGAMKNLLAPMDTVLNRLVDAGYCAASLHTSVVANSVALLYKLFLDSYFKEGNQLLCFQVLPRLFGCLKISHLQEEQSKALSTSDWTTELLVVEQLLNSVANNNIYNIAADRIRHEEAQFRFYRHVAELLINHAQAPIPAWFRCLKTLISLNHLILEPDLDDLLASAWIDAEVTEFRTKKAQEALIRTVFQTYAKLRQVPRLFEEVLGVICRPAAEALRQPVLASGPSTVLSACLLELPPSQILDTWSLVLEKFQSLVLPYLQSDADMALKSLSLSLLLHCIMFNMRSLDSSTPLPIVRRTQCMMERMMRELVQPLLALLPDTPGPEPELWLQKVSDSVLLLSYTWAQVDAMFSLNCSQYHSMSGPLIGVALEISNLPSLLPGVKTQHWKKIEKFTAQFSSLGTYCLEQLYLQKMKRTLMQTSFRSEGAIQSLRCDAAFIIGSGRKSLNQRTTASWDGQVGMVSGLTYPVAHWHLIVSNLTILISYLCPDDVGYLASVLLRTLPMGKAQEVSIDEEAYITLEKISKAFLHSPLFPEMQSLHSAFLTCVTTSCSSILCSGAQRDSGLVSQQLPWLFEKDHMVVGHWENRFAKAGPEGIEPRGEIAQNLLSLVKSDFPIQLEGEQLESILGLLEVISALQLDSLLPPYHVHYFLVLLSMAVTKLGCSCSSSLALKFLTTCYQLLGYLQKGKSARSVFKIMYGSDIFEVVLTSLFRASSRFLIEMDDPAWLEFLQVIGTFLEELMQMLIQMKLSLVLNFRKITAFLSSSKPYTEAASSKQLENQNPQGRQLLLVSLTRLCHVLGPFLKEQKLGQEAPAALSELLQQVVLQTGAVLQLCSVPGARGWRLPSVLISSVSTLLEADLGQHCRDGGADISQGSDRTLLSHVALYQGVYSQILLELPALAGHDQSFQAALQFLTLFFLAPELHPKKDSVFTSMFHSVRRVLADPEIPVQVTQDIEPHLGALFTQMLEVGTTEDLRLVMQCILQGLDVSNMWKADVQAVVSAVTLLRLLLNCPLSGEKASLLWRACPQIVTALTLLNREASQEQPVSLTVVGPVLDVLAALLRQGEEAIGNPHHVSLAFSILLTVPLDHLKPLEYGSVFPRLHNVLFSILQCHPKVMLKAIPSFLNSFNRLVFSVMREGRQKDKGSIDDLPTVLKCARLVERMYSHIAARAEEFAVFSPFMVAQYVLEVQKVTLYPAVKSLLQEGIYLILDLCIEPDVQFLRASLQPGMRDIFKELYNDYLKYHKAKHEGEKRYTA
UniProt Q9BZM5, whole entry, looked up: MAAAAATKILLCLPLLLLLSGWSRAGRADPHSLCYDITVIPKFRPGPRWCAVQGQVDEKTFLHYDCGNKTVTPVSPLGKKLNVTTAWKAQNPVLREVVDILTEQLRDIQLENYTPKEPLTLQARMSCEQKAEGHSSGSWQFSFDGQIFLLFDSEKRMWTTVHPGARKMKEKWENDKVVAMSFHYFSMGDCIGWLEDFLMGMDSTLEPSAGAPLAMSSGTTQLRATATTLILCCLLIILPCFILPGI
UniProt P13051, whole entry, looked up: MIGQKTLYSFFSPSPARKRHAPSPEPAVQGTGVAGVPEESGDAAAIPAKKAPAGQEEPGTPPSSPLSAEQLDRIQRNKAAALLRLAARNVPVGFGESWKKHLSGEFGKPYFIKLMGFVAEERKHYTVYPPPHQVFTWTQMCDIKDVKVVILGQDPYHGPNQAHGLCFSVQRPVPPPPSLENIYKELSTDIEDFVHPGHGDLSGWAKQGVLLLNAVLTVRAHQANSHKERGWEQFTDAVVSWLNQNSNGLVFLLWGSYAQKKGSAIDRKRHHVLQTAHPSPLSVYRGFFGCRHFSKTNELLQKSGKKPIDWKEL
UniProt P61960, whole entry, looked up: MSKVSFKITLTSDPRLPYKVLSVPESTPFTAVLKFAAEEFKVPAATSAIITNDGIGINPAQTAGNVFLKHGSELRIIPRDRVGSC
UniProt O00124: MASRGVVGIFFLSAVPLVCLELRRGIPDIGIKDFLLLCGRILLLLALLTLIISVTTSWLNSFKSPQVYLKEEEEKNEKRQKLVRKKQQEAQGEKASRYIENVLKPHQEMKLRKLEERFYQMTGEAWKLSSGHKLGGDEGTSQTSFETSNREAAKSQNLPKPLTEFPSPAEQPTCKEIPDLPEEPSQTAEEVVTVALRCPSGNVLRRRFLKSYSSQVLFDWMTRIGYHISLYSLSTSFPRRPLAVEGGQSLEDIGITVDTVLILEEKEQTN
UniProt Q9BZM6: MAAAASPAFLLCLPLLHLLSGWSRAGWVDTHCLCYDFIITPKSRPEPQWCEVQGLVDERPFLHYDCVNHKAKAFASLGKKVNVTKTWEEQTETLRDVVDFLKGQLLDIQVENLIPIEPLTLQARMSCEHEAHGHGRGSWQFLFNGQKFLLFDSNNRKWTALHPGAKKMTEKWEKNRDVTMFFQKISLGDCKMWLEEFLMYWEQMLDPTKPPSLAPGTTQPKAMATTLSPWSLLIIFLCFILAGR
UniProt Q8IWV7: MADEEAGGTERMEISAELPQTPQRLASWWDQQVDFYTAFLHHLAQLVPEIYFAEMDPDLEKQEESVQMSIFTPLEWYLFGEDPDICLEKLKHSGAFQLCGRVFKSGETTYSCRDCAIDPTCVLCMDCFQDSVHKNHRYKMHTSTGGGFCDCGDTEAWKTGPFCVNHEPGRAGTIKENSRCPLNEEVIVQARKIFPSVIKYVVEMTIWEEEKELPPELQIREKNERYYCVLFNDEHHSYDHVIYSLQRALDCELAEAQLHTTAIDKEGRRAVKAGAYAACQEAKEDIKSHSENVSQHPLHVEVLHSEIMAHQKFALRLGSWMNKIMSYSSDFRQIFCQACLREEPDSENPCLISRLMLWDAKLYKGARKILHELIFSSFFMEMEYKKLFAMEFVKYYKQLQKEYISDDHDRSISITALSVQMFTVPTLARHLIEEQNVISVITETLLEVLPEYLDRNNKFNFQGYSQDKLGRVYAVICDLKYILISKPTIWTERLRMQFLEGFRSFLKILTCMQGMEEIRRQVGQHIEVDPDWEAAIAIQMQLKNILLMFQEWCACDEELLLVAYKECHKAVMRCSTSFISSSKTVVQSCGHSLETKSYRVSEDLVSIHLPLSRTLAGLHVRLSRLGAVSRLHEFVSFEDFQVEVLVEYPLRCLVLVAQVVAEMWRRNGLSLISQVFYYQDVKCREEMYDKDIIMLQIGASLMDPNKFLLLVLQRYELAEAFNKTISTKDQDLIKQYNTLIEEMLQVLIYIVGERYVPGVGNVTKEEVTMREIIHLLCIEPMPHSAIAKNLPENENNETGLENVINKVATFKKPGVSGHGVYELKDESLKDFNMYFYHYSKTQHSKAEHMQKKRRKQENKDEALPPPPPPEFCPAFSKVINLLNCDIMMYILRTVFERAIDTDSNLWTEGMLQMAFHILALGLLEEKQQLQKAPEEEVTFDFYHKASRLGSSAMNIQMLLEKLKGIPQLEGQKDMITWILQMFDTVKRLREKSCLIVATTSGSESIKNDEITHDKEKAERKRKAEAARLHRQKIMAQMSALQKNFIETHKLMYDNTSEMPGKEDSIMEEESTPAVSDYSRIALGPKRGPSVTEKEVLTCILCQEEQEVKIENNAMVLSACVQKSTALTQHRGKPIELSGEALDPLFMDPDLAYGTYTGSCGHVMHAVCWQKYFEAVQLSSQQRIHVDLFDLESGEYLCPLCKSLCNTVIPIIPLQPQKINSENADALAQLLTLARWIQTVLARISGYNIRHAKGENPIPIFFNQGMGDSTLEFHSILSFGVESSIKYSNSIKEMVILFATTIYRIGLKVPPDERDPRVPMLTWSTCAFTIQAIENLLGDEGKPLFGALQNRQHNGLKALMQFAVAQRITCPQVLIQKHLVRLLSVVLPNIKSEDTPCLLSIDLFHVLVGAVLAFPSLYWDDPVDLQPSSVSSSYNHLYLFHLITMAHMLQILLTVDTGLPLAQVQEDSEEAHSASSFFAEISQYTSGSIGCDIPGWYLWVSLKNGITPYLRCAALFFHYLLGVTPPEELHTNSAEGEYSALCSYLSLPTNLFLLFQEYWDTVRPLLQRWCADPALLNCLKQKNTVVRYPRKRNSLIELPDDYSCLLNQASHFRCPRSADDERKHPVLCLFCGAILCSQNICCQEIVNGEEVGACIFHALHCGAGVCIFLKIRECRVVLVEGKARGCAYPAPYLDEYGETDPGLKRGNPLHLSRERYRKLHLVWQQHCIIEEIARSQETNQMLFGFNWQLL
UniProt P15498: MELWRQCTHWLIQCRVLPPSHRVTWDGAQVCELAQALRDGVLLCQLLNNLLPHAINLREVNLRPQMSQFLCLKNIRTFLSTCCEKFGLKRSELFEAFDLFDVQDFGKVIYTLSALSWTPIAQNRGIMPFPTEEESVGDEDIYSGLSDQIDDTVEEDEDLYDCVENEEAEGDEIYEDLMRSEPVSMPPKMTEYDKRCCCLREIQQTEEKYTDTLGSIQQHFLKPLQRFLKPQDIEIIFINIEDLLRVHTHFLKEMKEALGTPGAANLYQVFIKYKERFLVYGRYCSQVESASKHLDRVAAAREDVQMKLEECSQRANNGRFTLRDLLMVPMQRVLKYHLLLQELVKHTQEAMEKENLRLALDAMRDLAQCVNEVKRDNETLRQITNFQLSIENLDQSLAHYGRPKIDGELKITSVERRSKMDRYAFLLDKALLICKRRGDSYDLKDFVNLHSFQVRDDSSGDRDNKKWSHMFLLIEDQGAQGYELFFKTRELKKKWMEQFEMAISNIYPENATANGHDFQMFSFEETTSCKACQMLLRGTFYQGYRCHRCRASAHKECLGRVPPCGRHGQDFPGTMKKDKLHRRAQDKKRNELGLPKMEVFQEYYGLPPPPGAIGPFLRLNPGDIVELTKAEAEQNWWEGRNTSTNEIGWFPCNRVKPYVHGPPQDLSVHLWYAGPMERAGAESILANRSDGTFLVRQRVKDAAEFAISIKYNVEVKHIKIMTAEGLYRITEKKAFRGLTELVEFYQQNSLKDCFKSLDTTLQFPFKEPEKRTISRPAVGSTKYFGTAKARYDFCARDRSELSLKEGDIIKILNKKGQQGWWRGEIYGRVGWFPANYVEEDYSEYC
UniProt O75317, whole entry, looked up: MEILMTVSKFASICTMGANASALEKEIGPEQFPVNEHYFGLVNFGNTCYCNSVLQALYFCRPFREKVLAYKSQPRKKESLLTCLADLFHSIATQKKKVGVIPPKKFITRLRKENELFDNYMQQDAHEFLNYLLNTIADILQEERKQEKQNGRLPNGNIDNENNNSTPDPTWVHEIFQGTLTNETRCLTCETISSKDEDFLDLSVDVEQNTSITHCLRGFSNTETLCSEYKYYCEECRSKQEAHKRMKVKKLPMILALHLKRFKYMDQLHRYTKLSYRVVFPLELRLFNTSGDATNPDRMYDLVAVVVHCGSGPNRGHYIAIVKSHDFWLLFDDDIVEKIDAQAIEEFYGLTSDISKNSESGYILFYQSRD

Compound in the first assay: COC1=CC=C(C=C1)CN2C=CC3=C2C=C(C=C3)C(=O)NO
Description: log2 fold change, soluble protein after heating vs DMSO (PISA); higher = thermal stabilisation; K562 cells, 10 uM, 30 min; active = over 0.2 and 3.5 SD of the protein, either way, in both replicates (recomputed). Summed up:
(§1)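 Values are thermal stability changes relative to control samples and are taken from duplicates. They are stated as log2 fold changes. Before quantification by TMTpro 16plex LC-MS/MS with equalised channel sums, K562 cells at 2×10^6 cells/mL were treated with 10 μM compound for 30 min, heated in aliquots for 3 min across 48°C-58°C, pooled, extracted in PBS with 0.5% NP-40 at 4°C, and centrifuged at 21,000xg for 90 min to give the soluble supernatant.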
In the case of VAMP3 (UniProt Q15836), the log2 fold change was inactive: 0.081.
For UQCR11 (UniProt O14957), the log2 fold change was inactive: -0.013.
As for UPP1 (UniProt Q16831), the log2 fold change was inactive: -0.109.
In the case of UGP2 (UniProt C9JWG0), the log2 fold change is inactive: -0.002.
Take UTP18 (UniProt Q9Y5J1): the log2 fold change is inactive: 0.035.
Regarding UPF3A (UniProt Q9H1J1), the log2 fold change is inactive: -0.129.
For UBN2 (UniProt Q6ZU65), the log2 fold change was inactive: 0.013.
Turning to UMAD1 (UniProt C9J7I0), the log2 fold change was inactive: 0.163.
As to UBQLN3 (UniProt Q9H347), the log2 fold change is inactive: -0.026.
For USF3 (UniProt Q68DE3), the log2 fold change was inactive: -0.412.
Turning to USP4 (UniProt Q13107), the log2 fold change is inactive: -0.053.
The same measure, in the same setting: the same measure for USP16 (UniProt Q9Y5T5): inactive: -0.062; for URB2 (UniProt Q14146): inactive: -0.017; for ULK3 isoform 4 (UniProt Q6PHR2): inactive: 0.199.
As for USP46 (UniProt P62068), the log2 fold change is inactive: -0.009.
UTP14C (UniProt Q5TAP6): the log2 fold change is inactive: 0.122.

Compound in a further assay: CON(C)C(=O)N1N=C(c2cc(F)ccc2F)S[C@@]1(CCCN)c1ccccc1 [filanesib]
Described as above. The gist of the method:
as §1
Consider ULBP2 (UniProt Q9BZM5), for which the log2 fold change was inactive: 0.252.
With UGP2 (UniProt C9JWG0), the log2 fold change was inactive: 0.099.
Consider UTP18 (UniProt Q9Y5J1), for which the log2 fold change is inactive: 0.284.
Regarding UPF3A (UniProt Q9H1J1), the log2 fold change was inactive: 0.439.
Take UNG (UniProt P13051): the log2 fold change is inactive: 0.035.
With UFM1 isoform 2 (UniProt P61960), the log2 fold change is inactive: -0.12.
As for USF3 (UniProt Q68DE3), the log2 fold change was inactive: 0.086.
With UBXN8 (UniProt O00124), the log2 fold change is inactive: 0.069.
Same read-out and setting: under VASN (UniProt Q6EMK4) stands inactive: -0.023; under USP11 (UniProt P51784), inactive: 0.306.
On to VCPIP1 (UniProt Q96JH7), for which the log2 fold change is inactive: 0.398.
For the target ULBP1 (UniProt Q9BZM6), the log2 fold change is inactive: 0.071.
Still for that read-out and setting: under ULK3 isoform 4 (UniProt Q6PHR2) stands inactive: -0.145.
Regarding USP33 (UniProt Q8TEY7), the log2 fold change was inactive: 0.195.
UBR1 (UniProt Q8IWV7): the log2 fold change was inactive: 0.093.
The same measure, in the same setting: under UNC13A (UniProt Q9UPW8) stands inactive: -0.178.
Still for that read-out and setting: the same measure for USP46 (UniProt P62068): inactive: 0.037.
Consider UTP14C (UniProt Q5TAP6), for which the log2 fold change was inactive: -0.056.
USP48 (UniProt Q86UV5): the log2 fold change was inactive: -0.016.

Compound in another assay: CO[C@H]1C[C@@H]2CC[C@@H](C)[C@@](O)(O2)C(=O)C(=O)N2CCCC[C@H]2C(=O)O[C@H]([C@H](C)C[C@@H]2CC[C@H](n3cnnn3)[C@H](OC)C2)CC(=O)[C@H](C)/C=C(\C)[C@@H](O)[C@@H](OC)C(=O)[C@H](C)C[C@H](C)/C=C/C=C/C=C/1C [zotarolimus]
The assay is described as above. The gist of the method: as §1
In the case of VAMP3 (UniProt Q15836), the log2 fold change was inactive: -0.155.
VAV1 (UniProt P15498): the log2 fold change is inactive: 0.272.
With ULBP2 (UniProt Q9BZM5), the log2 fold change is inactive: -0.406.
With UNG (UniProt P13051), the log2 fold change is inactive: -0.013.
For the target USB1 (UniProt Q9BQ65), the log2 fold change was inactive: 0.011.
As to UFM1 isoform 2 (UniProt P61960), the log2 fold change is inactive: -0.048.
Take UBN2 (UniProt Q6ZU65): the log2 fold change was inactive: -0.155.
In the case of UMAD1 (UniProt C9J7I0), the log2 fold change was inactive: 0.087.
Take USP12 (UniProt O75317): the log2 fold change was inactive: 0.078.
Still for that read-out and setting: the same measure for UBQLN3 (UniProt Q9H347): inactive: -0.074.
As to UBXN8 (UniProt O00124), the log2 fold change was inactive: -0.028.
As to UQCC3 (UniProt Q6UW78), the log2 fold change is inactive: -0.073.
On to USP11 (UniProt P51784), for which the log2 fold change is inactive: -0.028.
Turning to USP16 (UniProt Q9Y5T5), the log2 fold change is inactive: 0.039.
For the target URB2 (UniProt Q14146), the log2 fold change is inactive: -0.062.
The same measure, in the same setting: the same measure for UTP23 (UniProt Q9BRU9): inactive: 0.037.
USP27X (UniProt A6NNY8): the log2 fold change was inactive: 0.049.
Consider ULBP1 (UniProt Q9BZM6), for which the log2 fold change was inactive: 0.022.
Still for that read-out and setting: under UBR1 (UniProt Q8IWV7) stands inactive: 0.273.

Compound in the next assay: COc1cc(C(=O)O)ccc1NC(=O)[C@@H]1N[C@@H](CC(C)(C)C)[C@](C#N)(c2ccc(Cl)cc2F)[C@H]1c1cccc(Cl)c1F [idasanutlin]
Described as above. The gist of the method:
as §1
Turning to VAV1 (UniProt P15498), the log2 fold change was inactive: -0.015.
The same measure, in the same setting: under UQCR11 (UniProt O14957) stands inactive: 0.192.
With UGP2 (UniProt C9JWG0), the log2 fold change was inactive: 0.009.
For the target UNG (UniProt P13051), the log2 fold change is inactive: 0.004.
Regarding UFM1 isoform 2 (UniProt P61960), the log2 fold change is inactive: 0.
Turning to USP12 (UniProt O75317), the log2 fold change was inactive: -0.022.
Still for that read-out and setting: the same measure for UBQLN3 (UniProt Q9H347): inactive: 0.015; for UBXN8 (UniProt O00124): inactive: -0.116.
As for USP16 (UniProt Q9Y5T5), the log2 fold change was inactive: 0.217.
Still for that read-out and setting: the same measure for URB2 (UniProt Q14146): inactive: -0.228.
As to USP27X (UniProt A6NNY8), the log2 fold change is inactive: 0.023.
For ULBP1 (UniProt Q9BZM6), the log2 fold change was inactive: 0.036.
On the same count and under the same terms, the same measure for USP33 (UniProt Q8TEY7): inactive: 0.246; for UBR1 (UniProt Q8IWV7): inactive: 0.144.

Compound in another assay: COc1cc(Nc2ncc3c(n2)-c2ccc(Cl)cc2C(c2c(F)cccc2OC)=NC3)ccc1C(=O)O [alisertib]
The assay is described as above. The gist of the method: as §1
Regarding VAMP3 (UniProt Q15836), the log2 fold change is inactive: -0.048.
As to VAV1 (UniProt P15498), the log2 fold change was inactive: 0.06.
Take ULBP2 (UniProt Q9BZM5): the log2 fold change is inactive: 0.003.
The same measure, in the same setting: the same measure for UQCR11 (UniProt O14957): inactive: 0.153; for UGP2 (UniProt C9JWG0): inactive: 0.136; for UNG (UniProt P13051): inactive: 0.024.
Turning to UFM1 isoform 2 (UniProt P61960), the log2 fold change is inactive: -0.067.
As for USP54 (UniProt Q70EL1), the log2 fold change is inactive: -0.168.
Still for that read-out and setting: under UMAD1 (UniProt C9J7I0) stands inactive: -0.027; under USP12 (UniProt O75317), inactive: 0.025; under UBQLN3 (UniProt Q9H347), inactive: -0.126.
As to USF3 (UniProt Q68DE3), the log2 fold change was inactive: -0.057.
In the case of UBQLN1 isoform 2 (UniProt Q9UMX0), the log2 fold change is inactive: 0.046.
As for USP11 (UniProt P51784), the log2 fold change was inactive: 0.109.
On the same count and under the same terms, the same measure for USP16 (UniProt Q9Y5T5): inactive: -0.099; for ULBP1 (UniProt Q9BZM6): inactive: -0.023.
For the target UBR1 (UniProt Q8IWV7), the log2 fold change was inactive: -0.008.
The same measure, in the same setting: the same measure for USP48 (UniProt Q86UV5): inactive: 0.19.

Values taken from the supplement of paper PMC10849652.
